Measured values: US8530491B2, “Antimalarial compounds with flexible side-chains” (Medicines for Malaria Venture (MMV), priority 2007, dated 2013)

Tested on: African green monkey kidney fibroblast (Vero) cells
Assay: Cytotoxicity in mammalian cells
Format: cell-based
Details: for IC50 ratio Vero/TM4: Vero IC50 / P. falciparum TM4 IC50; for IC50 ratio Vero/V1/S: Vero IC50 / P. falciparum V1/S IC50

| SMILES | IC50 ratio Vero/TM4 | IC50 ratio Vero/V1/S |
| --- | --- | --- |
| CCc1nc(N)nc(N)c1OCCCOc1cc(C)nc2cc(F)ccc12 [Compound P157, 2,4-diamino-6-ethyl-5-(3-(7-fluoro-2-methylquinolin-4-yloxy)propoxy)pyrimidine] | 42 | 3 |
| CCOC(=O)CCc1ccccc1OCCCOc1c(N)nc(N)nc1CC [Compound P195, 2,4-diamino-6-ethyl-5-(3-(2-(2-ethoxycarbonylethyl)phenoxy)propoxy)pyrimidine] | 500 | 18 |
| CCc1nc(N)nc(N)c1OCCCOc1cc(C)nc2ccc(OCCCC(=O)O)cc12 [Compound P169, 2,4-diamino-6-ethyl-5-(3-(6-(3-carboxypropoxy)-2-methylquinolin-4-yloxy)propoxy)pyrimidine] | 1405 | 134 |
| CCc1nc(N)nc(N)c1OCCCOc1ccccc1CCC(=O)O [Compound P218, 2,4-diamino-6-ethyl-5-(3-(2-(2-carboxyethyl)phenoxy)propoxy)pyrimidine] | >1620 |  |
| CCc1nc(N)nc(N)c1OCCCOc1ccnc2ccccc12 [Compound P113, 2,4-diamino-6-ethyl-5-(3-(quinolin-4-yloxy)propoxy)pyrimidine] | 32 | 2 |
| CCc1nc(N)nc(N)c1OCCCOc1ccnc2ccc(F)cc12 [Compound P153, 2,4-diamino-6-ethyl-5-(3-(6-fluoro-quinolin-4-yloxy)propoxy)pyrimidine] | 149 | 8 |
| CCOC(=O)CCCOc1ccccc1OCCCOc1c(N)nc(N)nc1CC [Compound P217, 2,4-diamino-6-ethyl-5-(3-(2-(3-ethoxycarbonylpropoxy)phenoxy)propoxy)pyrimidine] | 1380 |  |
| CCc1nc(N)nc(N)c1OCCCOc1cc(C)nc2ccccc12 [Compound P154, 2,4-diamino-6-ethyl-5-(3-(2-methylquinolin-4-yloxy)propoxy)pyrimidine] | 38 | 4 |
| CCc1nc(N)nc(N)c1OCCCOc1ccccc1OCCCC(=O)O [Compound P135, 2,4-diamino-6-ethyl-5-(3-(2-(3-carboxypropoxy)phenoxy)propoxy)pyrimidine] | >6000 | >260 |
